According to PubChem BioAssay AID1794845 (National Center for Advancing Translational Sciences (NCATS), 2023):
Fewer than 10 of roughly 6,900 compounds were called active. Calls follow the shape of the dose curve; as a rule, active = well fitted curve in the direction sought with a large enough effect; inconclusive = small, poorly fitted or top-dose-only effect, or another doubt; inactive = no such curve, though single readings can be large or run the other way. The list shows a part of the results.

Sequences of proteins named here, by UniProt entry; tags and fusion partners are left off. A change or cut given only in a name is not applied to a line headed by its entry.
UniProt C7C422: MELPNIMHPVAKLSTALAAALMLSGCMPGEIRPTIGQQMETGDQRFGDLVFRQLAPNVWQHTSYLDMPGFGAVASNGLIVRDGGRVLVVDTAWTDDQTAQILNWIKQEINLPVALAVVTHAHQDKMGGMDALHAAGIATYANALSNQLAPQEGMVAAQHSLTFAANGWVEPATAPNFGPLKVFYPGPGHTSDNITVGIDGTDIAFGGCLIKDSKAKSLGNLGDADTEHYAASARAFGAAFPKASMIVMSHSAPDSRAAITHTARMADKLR

molecular target: Metallo-beta-lactamase type 2 (Klebsiella pneumoniae) (UniProt C7C422); experiment: qHTS to identify inhibitors of the New Delhi Metallo-beta-lactamase (NDM): primary screen against the NCATS Gemini Collection; conditions: NDM-1 enzyme, meropenem hydrolysis, absorbance 300 nm; at 38.4 µM (top of the series) unless noted; also: % of control where 0% means no effect
Summary of the method: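 NDM-1 at 2 nM final in 50 mM HEPES pH 7.0, 1 uM ZnSO4, 0.01% Tween20, preincubated >30 min with compound. Meropenem 50 uM final added; absorbance at 300 nm after 30 min.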

Question: For `COc1cccc(-c2[nH]cnc2-c2ccccc2)c1OCCCN(C)C`, which activity % (negative = inhibition) is on record?
Answer: inactive: 1.78%

Question: With `F[C@@H]1CN(Cc2nccs2)C[C@@H]1OCc1nc2ccccc2o1` as the molecule, how does the activity % (negative = inhibition) read?
Answer: inactive: 11.2% [at 57.5 µM]

Question: With `O=C(COc1ccccc1)NC1CCc2nnc(C3CC3)n2CC1` (configuration not stated) as the molecule, how does the activity % (negative = inhibition) read?
Answer: inactive: -0.21%

Question: Which activity % (negative = inhibition) does the source give for `CN(C(=O)c1cccc2ccccc12)C1CCCN(C2Cc3ccccc3C2)C1` (configuration not stated) here?
Answer: inactive: -0.781%

Question: How did the activity % (negative = inhibition) turn out when `COc1ccccc1NC(=O)N1CC(C(=O)NCC2CC2)CC(c2ccccc2)C1` (configuration not stated) was run?
Answer: inactive: 24.9%

Question: With `COC(=O)[C@@H]1Cc2ncn(Cc3ccccc3)c2CN1C(=O)c1cccs1` as the molecule, how does the activity % (negative = inhibition) read?
Answer: inactive: 9.04% [at 57.5 µM]

Question: Which activity % (negative = inhibition) does the source give for `CCOc1ccccc1CN1C[C@@H](CO)[C@H](C2CCN(C(C)=O)CC2)C1` here?
Answer: inactive: -5.29%

Question: Which activity % (negative = inhibition) does the source give for `CNC(=O)c1cc(C2CC2)nc2c1c(C1CCCN(C(=O)Cc3ccccn3)C1)nn2C` (configuration not stated) here?
Answer: inactive: 6.71%

Question: With `CC(C)C[C@@H](NC(=O)[C@@H]1C[C@@H](NC(=O)c2cnccn2)CCN1C(=O)COCC(=O)O)C(N)=O` as the molecule, how does the activity % (negative = inhibition) read?
Answer: inactive: -1.34%

Question: How did the activity % (negative = inhibition) turn out when `Cc1ccc(N2CC(C)N(C(=O)c3ccc(-n4cnnn4)cc3)CC2=O)cc1` (configuration not stated) was run?
Answer: inactive: 6.66%

Question: `Cc1ccc(-c2nnc3ccc(-c4ccoc4)nn23)nc1` was tested. Which activity % (negative = inhibition) did it give?
Answer: inactive: 18% [at 77.1 µM]

Question: How did the activity % (negative = inhibition) turn out when `O=C(c1cn[nH]c1-c1ccc(F)cc1)N1CC2CC(C1)[C@H]1CCCC(=O)N1C2` (some centres not stated) was run?
Answer: inactive: -1.35%

Question: `O=C(Nc1ccccc1F)C1CN(C2CCCCC2)C(=O)N1` (configuration not stated) was tested. Which activity % (negative = inhibition) did it give?
Answer: inactive: 10.1% [at 57.5 µM]

Question: `CNC(=O)c1cc[nH]c1C1CCCN(C(=O)Cc2ccsc2)C1` (configuration not stated) was tested. Which activity % (negative = inhibition) did it give?
Answer: inactive: 2.21%

Question: How did the activity % (negative = inhibition) turn out when `O=C(NCc1ccccc1)C1CCN(c2cnc3nccnc3c2)CC1` was run?
Answer: inactive: 3%

Question: `CN(C)C[C@@H]1CN(c2ncccn2)C[C@H]1NS(=O)(=O)c1ccc(Cl)cc1` was tested. Which activity % (negative = inhibition) did it give?
Answer: inactive: 1.78%

Question: How did the activity % (negative = inhibition) turn out when `COc1ccccc1C(=O)N1CCC2(C1)C(=NC1CCCCC1)NC(=O)N2c1cc(F)cc(F)c1` (configuration not stated) was run?
Answer: inactive: 11.2%

Question: For `CSc1ccc(C(=O)N2C[C@@H](CN3CCN(C)CC3)[C@@H](CO)C2)cc1`, which activity % (negative = inhibition) is on record?
Answer: inactive: 1.48%

Question: Which activity % (negative = inhibition) does the source give for `COCC(=O)N[C@H]1CCN(C(=O)COC)[C@H](C(=O)N[C@H](Cc2c[nH]c3ccccc23)C(N)=O)C1` here?
Answer: inactive: 1.71%

Question: With `COc1ccc(OCc2nc(C)c(CCO)c(=O)n2CC(=O)NC(C)CCc2ccccc2)cc1` (configuration not stated) as the molecule, how does the activity % (negative = inhibition) read?
Answer: inactive: 4.23%

Question: `Cc1ccccc1CN1CCC(N2CCCC(C(=O)NC3CC3)C2)CC1` (configuration not stated) was tested. Which activity % (negative = inhibition) did it give?
Answer: inactive: 11.3%

Question: With `C=CCCC(CN1CCCC1)Oc1ccc(C(=O)NCC)cn1` (configuration not stated) as the molecule, how does the activity % (negative = inhibition) read?
Answer: inactive: 2.49%

Question: With `O=C1CCCCC(CNC(=O)c2cn[nH]c2-c2ccccc2)N1` (configuration not stated) as the molecule, how does the activity % (negative = inhibition) read?
Answer: inactive: -5.25%

Question: Which activity % (negative = inhibition) does the source give for `Cc1nnc2n1CCC(NC(=O)c1ccoc1)CC2` (configuration not stated) here?
Answer: inactive: -0.203%

Question: With `O=C(Cn1ccnc1)N1CCC(N2C(=O)C3(CCCC3)C2c2ccccc2)CC1` (configuration not stated) as the molecule, how does the activity % (negative = inhibition) read?
Answer: inactive: -1.04%

Question: How did the activity % (negative = inhibition) turn out when `COc1ccc(OC)c(S(=O)(=O)N2CC(N(C3CCOCC3)S(C)(=O)=O)C2)c1` was run?
Answer: inactive: 5.32%

Question: `CCOCC(=O)N[C@@H]1CN(S(C)(=O)=O)C[C@H]1CN(C)C` was tested. Which activity % (negative = inhibition) did it give?
Answer: inactive: -0.0867%

Question: With `CCCc1ccc2oc(C(=O)N(C)CCC3CCCCO3)c(C)c2c1` (configuration not stated) as the molecule, how does the activity % (negative = inhibition) read?
Answer: inactive: 4.21%

Question: Which activity % (negative = inhibition) does the source give for `O=C(Nc1ccccc1)c1cnc2c(c1)N(C(=O)Cc1ccc(O)cc1)CCC2` here?
Answer: inactive: 8.52% [at 57.5 µM]

Question: Which activity % (negative = inhibition) does the source give for `O=C(CC1CCCC1)N1C[C@@H](CO)[C@@H]2Oc3ccc(Cl)cc3[C@@H]21` here?
Answer: inactive: 7.23%

Question: `Cc1nc(C)c(C(=O)N2Cc3ccccc3C(O)C2)s1` (configuration not stated) was tested. Which activity % (negative = inhibition) did it give?
Answer: inactive: 2.96%

Question: With `COc1ccccc1CNC(=O)c1ccc2c(c1)N(C)C1CCCCN1C2=O` (configuration not stated) as the molecule, how does the activity % (negative = inhibition) read?
Answer: inactive: -18.5%

Question: With `O=C(NC1CCCCC1)C1CN(C(=O)c2ccc(Br)o2)CC12CCOCC2` (configuration not stated) as the molecule, how does the activity % (negative = inhibition) read?
Answer: inactive: 7.29%

Question: Which activity % (negative = inhibition) does the source give for `CN(C)[C@H]1CCN(C(=O)c2ccc(SCCO)cc2)C[C@H]1CCC(=O)O` here?
Answer: inactive: 3.94%

Question: `CN(C)C[C@@H]1CN(c2ccccn2)C[C@H]1NC(=O)NC(C)(C)C` was tested. Which activity % (negative = inhibition) did it give?
Answer: inactive: -0.112%

Question: How did the activity % (negative = inhibition) turn out when `O=C(CC1CCOC2(CCN(Cc3cccs3)CC2)C1)NC1CC1` (configuration not stated) was run?
Answer: inactive: 2.86%

Question: How did the activity % (negative = inhibition) turn out when `CN(C)c1nc2c(c(=O)[nH]1)CCN(Cc1ccsc1)CC2` was run?
Answer: inactive: 2.54%

Question: With `CCNC(=O)[C@@H]1C[C@H](n2cc(CN(C)C(=O)NC3CCCCC3)nn2)CN1` as the molecule, how does the activity % (negative = inhibition) read?
Answer: inactive: 35.9%

Question: For `COc1nccnc1NC1CCN(C(=O)NC2CCCC2)CC1`, which activity % (negative = inhibition) is on record?
Answer: inactive: 10.1%

Question: With `COCCCn1c(C)cc(C(=O)N2CCCC(c3[nH]ccc3C(N)=O)C2)c1C` (configuration not stated) as the molecule, how does the activity % (negative = inhibition) read?
Answer: inactive: 1.15%

Question: For `CN(C)CC(O)c1cc2n(n1)CCN(C(=O)c1cc(=O)[nH]c(=O)[nH]1)C2` (configuration not stated), which activity % (negative = inhibition) is on record?
Answer: inactive: 0.619%

Question: For `FC(F)(F)c1ccc(CN2CCCC3(CC(c4ccccn4)=NO3)C2)cc1` (configuration not stated), which activity % (negative = inhibition) is on record?
Answer: inactive: 11.7%
